Whole data set: some 33,000 sequences, median “E-score (-0.5 to 0.5)” near -0.0034, cut for the highest 2% near 0.25. This is one part of the list.
Each sequence was assayed against T1, Yap3 (UniProt P38749) (assay: PBM E-score (8-mer binding enrichment) (E-score (-0.5 to 0.5)); higher = stronger / more preferred TF binding). Details: protein concentration: 100 nM; construct: GST-full length.
T1 sequence: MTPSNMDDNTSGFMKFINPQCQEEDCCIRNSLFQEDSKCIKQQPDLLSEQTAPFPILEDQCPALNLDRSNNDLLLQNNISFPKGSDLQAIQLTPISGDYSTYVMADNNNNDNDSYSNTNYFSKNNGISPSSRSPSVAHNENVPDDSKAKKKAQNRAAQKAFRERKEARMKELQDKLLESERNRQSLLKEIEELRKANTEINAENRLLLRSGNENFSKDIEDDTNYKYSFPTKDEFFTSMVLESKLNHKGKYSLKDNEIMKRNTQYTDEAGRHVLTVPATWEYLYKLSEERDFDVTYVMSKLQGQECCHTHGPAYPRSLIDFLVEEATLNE
Outline: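 Using PURExpress in vitro transcription/translation, GST-tagged yeast transcription factors were made in full-length or DNA-binding-domain form. These were applied at about 100-200 nM to double-stranded universal all-10-mer Agilent arrays, and bound protein was detected with fluorescent anti-GST. Scans were normalised with masliner before the Universal PBM Analysis Suite assigned E-scores to ungapped eight-base words pooled with their reverse complements.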

Row | Sequence | PBM E-score
1 | GTACATCA | 0.142
2 | TAAATTCA | 0.0231
3 | CCACCAGA | -0.0626
4 | AGCTGCCT | -0.243
5 | ATCGAATA | 0.0665
6 | TCATATAA | 0.203
7 | CCTTGGGC | -0.215
8 | AGCTTTAG | -0.117
9 | GGGAGAGA | -0.229
10 | CTCTAGAA | -0.214
11 | GTATGCAA | -0.0479
12 | GAATTGGC | -0.0653
13 | ATAAACAT | 0.141
14 | TAACCTAA | 0.0921
15 | CTCACCAC | -0.125
16 | CTGAAGAA | -0.171
17 | CAATCCAC | 0.0675
18 | TAAGCTGA | 0.167
19 | ACCGTGTA | 0.101
20 | AACCGGTA | -0.00429
21 | GAACGTGC | -0.087
22 | ACGTCGAG | -0.0705
23 | GAGAGTGC | -0.0944
24 | ACTAATTG | 0.167
25 | ATATGAGA | 0.196

Six entries from above, tab-delimited.
Row	Sequence	PBM E-score
4	AGCTGCCT	-0.243
5	ATCGAATA	0.0665
6	TCATATAA	0.203
7	CCTTGGGC	-0.215
8	AGCTTTAG	-0.117
9	GGGAGAGA	-0.229

(continued)

Row | Sequence | PBM E-score
26 | CCCATTAG | -0.352
27 | GGCAAACA | -0.00268
28 | CCAGATCC | -0.208
29 | CGTGCAAA | 0.0797
30 | GTCGAAGA | 0.00823
31 | ACGGTCCG | -0.21
32 | GGGCACAA | -0.0472
33 | AACAACTC | -0.104
34 | CGCCCTAC | -0.209
35 | GCGTGTAA | 0.00589
36 | CGACGTAC | 0.0214
37 | CGTAGACG | -0.167
38 | TCAGTAAA | 0.162
39 | CCTCATAC | 0.0888
40 | GCAAAAAC | 0.212
41 | AGGCCATG | 0.0929
42 | ACCTATAG | -0.0775
43 | CTCAAGAC | -0.133
44 | CATCTCCC | -0.0212
45 | CGTCCCAA | -0.0512
46 | CGCCGCGA | 0.0437
47 | GTTAACTA | 0.23
48 | CTCACCCC | -0.166
49 | AACAAACC | 0.0806
50 | CGACTGCA | 0.0353

Row | Sequence | PBM E-score
51 | AACCGACT | -0.0737
52 | ACAGATGC | -0.17
53 | AGTGACTA | -0.0718
54 | CCGTCTAA | -0.0668
55 | CTGTAAGA | -0.0157
56 | AAAATTAC | 0.273
57 | CAGTTCAG | -0.0576
58 | ATGGCCAC | -0.211
59 | TAAGAGGA | 0.0927
60 | ATGAAAAT | 0.209
61 | GTTGAAAA | 0.0707
62 | AAGGCGAG | -0.117
63 | GAGCACCC | -0.251
64 | CAAGTCAC | -0.0278
65 | GGGGATAC | -0.0513
66 | ACAGTTTA | -0.0823
67 | CAGATTTC | 0.0398
68 | GCGCACAC | 0.1
69 | CGCAACGC | -0.0681
70 | AGTCTGGA | 0.00286
71 | GCTTCCTA | 0.0545
72 | AACAAACG | 0.065
73 | CCTCGATA | 0.109
74 | TTAGGGAA | 0.0652
75 | CAGAGAAC | -0.0475

Row | Sequence | PBM E-score
76 | AGGCACGA | -0.14
77 | ATGAAAGC | 0.223
78 | GCGGTCCC | -0.25
79 | TCTCTACA | 0.1
80 | GTTTCACA | 0.145
81 | CGTTGGAG | -0.153
82 | GGCTTTCA | -0.0147
83 | CCTAGAGC | -0.161
84 | CACGCCTA | -0.1
85 | CGGATTAC | 0.116
86 | AATGAAGG | -0.0122
87 | AGTCAAAG | -0.0737
88 | ACGCACAA | 0.119
89 | ACGTGCCC | 0.0295
90 | GCCGCCCA | -0.117
91 | GACTGCCA | 0.103
92 | AGACTTCC | -0.161
93 | GATCATAC | 0.0631
94 | AGGAATGG | 0.00696
95 | AATACACC | 0.272
96 | CGACCTAG | 0.0835
97 | TCGCTTCA | 0.0146
98 | GGCAGACA | -0.0641
99 | GCCCCAAA | -0.153
100 | GCGCTTCC | 0.00479

Reformatted in markdown: entries from further up

| Row | Sequence | PBM E-score |
| --- | --- | --- |
| 87 | AGTCAAAG | -0.0737 |
| 89 | ACGTGCCC | 0.0295 |

(cont.)

Row | Sequence | PBM E-score
101 | GCTTGAAA | 0.106
102 | ATAACGTC | 0.0456
103 | ACCGCAAG | -0.0158
104 | CTTTGTCA | 0.15
105 | ATGTTCGA | -0.0713
106 | ATTGACTC | -0.0472
107 | AGCATAAC | 0.0172
108 | GCTCGGTA | -0.0865
109 | TACGGATA | 0.0129
110 | GTCAGGGA | -0.177
111 | ACTTTATA | 0.259
112 | CAGGGTGG | -0.191
113 | CTGTTGAC | 0.0345
114 | ACATGTGA | -0.0311
115 | CGACTGGC | -0.207
116 | ATACAAGC | 0.119
117 | ATCTGAGA | -0.0652
118 | CACATATC | 0.0834
119 | ATTCTACC | 0.0648
120 | GATGACCA | 0.0306
121 | ACGTCCTC | -0.0516
122 | AGATACGC | -0.00087
123 | CAAAATAA | 0.296
124 | ACGTAAAG | 0.184
125 | AAACGACA | 0.0941

Row | Sequence | PBM E-score
126 | AGTATTGA | 0.147
127 | CCTCTGCG | -0.264
128 | CTCCACCC | -0.336
129 | ACATATAG | 0.171
130 | AAGGAACT | 0.0541
131 | TGTGAAAA | 0.0986
132 | CGAATTGA | -0.0283
133 | GATTGCAC | 0.102
134 | AAGATGGT | -0.0188
135 | ACAGGACT | -0.203
136 | GATCAGGA | -0.0582
137 | GATAGATA | 0.0286
138 | GTCGCTCA | -0.0962
139 | CTCAGCCC | -0.339
140 | AAGGCGGG | -0.215
141 | AGCTACGA | -0.0214
142 | CATTCTCC | 0.0344
143 | ACGATGTG | 0.0904
144 | TCCTTCAA | 0.026
145 | TCCATCCA | -0.0216
146 | CGCGTGTA | -0.0565
147 | CGATTTTC | 0.206
148 | ACGCGTCG | 0.12
149 | AGATCTGA | -0.0273
150 | CCTAGTCC | -0.216

Row | Sequence | PBM E-score
151 | TCTGTACA | 0.106
152 | TGGACAAA | 0.125
153 | CCGTTTCG | -0.0506
154 | AATTCGAC | -0.194
155 | ACAGTTCG | 0.149
156 | CGCACCGA | -0.0113
157 | GATATCAC | 0.0808
158 | CGTTGCAC | -0.0748
159 | CCACTGAC | -0.273
160 | ACTATTTC | 0.224
161 | ACCCCCCG | -0.355
162 | GACTAGTA | 0.0783
163 | TTTGAAAA | 0.19
164 | ATTTATTA | 0.277
165 | ATCTCCAT | 0.0721
166 | AATTTGAG | 0.0737
167 | GGACTGAC | -0.133
168 | AATCAGAA | 0.0468
169 | CACTGTCG | -0.0928
170 | GGCCAGCC | -0.242
171 | CGAAGGAC | -0.243
172 | ACAAGCTC | -0.076
